In publication PMC9512837:
These are yes or no findings as the source states them, for the method shown. Some entries that bind do so weakly or less than the wild type.

Protein sequences, listed by entry. Tags and fused reporters are not part of them. Residues count along the entry.
UniProt P29317, residues 24-976: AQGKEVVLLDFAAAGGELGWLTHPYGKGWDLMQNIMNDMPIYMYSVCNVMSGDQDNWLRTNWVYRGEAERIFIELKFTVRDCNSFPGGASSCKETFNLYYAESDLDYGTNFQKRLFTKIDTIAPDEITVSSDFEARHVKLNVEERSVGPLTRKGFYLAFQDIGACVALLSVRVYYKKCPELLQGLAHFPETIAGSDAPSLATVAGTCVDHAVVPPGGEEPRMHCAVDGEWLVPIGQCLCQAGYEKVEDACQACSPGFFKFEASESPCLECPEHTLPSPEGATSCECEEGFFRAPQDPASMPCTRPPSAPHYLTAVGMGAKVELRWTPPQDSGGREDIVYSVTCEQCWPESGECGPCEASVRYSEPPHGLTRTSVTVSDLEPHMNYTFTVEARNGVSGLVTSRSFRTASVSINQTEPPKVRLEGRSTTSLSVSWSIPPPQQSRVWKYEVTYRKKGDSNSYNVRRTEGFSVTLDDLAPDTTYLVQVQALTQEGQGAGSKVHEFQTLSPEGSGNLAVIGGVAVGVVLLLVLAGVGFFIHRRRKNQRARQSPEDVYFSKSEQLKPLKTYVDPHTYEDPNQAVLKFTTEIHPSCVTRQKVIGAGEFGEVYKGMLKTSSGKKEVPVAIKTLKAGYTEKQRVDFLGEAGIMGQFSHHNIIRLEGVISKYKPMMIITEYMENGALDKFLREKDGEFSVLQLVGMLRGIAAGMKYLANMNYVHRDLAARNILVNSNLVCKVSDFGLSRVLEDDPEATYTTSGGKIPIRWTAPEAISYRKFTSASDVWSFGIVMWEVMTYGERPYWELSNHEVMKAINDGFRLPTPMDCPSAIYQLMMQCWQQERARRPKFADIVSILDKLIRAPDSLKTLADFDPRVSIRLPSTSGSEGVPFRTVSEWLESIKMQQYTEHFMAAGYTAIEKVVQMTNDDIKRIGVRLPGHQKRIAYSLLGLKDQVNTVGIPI

Target: EphA2-eYFP (UniProt P29317)
Test: fluorescence intensity fluctuation (FIF) spectrometry; augmented FIF on the high-intensity puncta of EphA2-eYFP found by the SLIC algorithm, pixels of at least four puncta combined into clusters; HEK293T cells treated with the ligands

Substance: EphA2-eYFP (from UniProt P29317 24-976) (receptor)
- binding: binds
